From US20040009920A1
No constants are given. Whether binding was seen depends on the method and setting. Some binding calls cover weakened binding; strength is not graded here.

Sequences of proteins named here, by UniProt entry; tags and fusion partners are left off. A change or cut given only in a name is not applied to a line headed by its entry. A line that says so, or that is headed by a name, gives the form on record, which may keep a tag or linker.
fibronectin (P02751, form named): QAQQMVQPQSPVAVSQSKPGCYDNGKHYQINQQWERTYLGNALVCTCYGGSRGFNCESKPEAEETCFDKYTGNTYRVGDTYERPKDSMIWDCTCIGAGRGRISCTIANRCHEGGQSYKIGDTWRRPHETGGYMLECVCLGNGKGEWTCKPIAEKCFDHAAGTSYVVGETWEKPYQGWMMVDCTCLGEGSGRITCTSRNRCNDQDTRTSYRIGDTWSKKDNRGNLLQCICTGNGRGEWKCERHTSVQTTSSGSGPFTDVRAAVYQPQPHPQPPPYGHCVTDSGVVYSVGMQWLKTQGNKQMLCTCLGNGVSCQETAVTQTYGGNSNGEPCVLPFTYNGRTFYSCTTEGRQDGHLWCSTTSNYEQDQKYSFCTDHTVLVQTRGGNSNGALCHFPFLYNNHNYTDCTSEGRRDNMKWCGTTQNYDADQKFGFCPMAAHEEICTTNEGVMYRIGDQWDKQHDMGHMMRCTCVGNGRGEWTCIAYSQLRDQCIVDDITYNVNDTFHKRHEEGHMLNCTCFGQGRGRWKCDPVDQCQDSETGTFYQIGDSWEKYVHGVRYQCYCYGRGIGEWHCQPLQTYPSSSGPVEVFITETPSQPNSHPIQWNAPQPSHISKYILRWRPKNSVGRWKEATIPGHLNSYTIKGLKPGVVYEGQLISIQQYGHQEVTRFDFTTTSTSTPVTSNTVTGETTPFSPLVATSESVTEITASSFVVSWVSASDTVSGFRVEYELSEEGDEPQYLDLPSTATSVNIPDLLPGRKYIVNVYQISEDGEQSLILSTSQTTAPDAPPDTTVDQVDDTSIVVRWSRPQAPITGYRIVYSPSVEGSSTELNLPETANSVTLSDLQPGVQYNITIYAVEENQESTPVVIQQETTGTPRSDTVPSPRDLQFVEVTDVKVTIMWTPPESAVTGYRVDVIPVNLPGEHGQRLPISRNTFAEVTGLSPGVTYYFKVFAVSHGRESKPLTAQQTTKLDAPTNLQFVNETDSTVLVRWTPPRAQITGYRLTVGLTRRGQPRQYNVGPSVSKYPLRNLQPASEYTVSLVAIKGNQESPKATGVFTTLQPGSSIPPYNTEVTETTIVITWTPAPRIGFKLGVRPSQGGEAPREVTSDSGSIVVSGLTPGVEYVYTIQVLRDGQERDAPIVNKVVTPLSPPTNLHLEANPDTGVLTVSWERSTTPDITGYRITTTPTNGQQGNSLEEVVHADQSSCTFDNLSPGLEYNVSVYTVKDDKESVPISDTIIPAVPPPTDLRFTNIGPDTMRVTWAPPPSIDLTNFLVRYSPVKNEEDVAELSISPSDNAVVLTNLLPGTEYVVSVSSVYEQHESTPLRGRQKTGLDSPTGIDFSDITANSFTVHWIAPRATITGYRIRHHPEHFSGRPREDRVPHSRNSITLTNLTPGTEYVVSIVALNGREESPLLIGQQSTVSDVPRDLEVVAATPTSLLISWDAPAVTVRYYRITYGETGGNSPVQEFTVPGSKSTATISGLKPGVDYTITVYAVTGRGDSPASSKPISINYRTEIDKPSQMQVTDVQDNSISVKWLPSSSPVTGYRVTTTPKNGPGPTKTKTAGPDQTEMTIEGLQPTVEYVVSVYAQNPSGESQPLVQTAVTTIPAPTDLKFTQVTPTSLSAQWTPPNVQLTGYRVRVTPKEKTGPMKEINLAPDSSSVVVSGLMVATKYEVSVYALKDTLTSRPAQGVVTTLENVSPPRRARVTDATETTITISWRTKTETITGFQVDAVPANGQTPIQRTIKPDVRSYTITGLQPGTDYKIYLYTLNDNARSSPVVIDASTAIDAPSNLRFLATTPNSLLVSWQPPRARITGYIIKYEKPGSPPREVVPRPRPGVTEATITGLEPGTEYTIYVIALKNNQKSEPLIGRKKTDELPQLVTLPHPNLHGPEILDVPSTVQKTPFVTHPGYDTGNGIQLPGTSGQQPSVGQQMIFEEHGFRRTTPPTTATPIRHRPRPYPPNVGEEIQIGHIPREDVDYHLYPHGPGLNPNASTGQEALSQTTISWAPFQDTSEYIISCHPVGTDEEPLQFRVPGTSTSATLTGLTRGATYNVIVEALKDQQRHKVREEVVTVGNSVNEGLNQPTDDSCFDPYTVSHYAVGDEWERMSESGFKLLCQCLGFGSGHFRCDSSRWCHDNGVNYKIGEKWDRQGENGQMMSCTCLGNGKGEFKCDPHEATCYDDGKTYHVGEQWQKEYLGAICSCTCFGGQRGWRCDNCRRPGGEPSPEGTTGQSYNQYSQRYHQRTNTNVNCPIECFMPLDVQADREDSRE

How the values were obtained:
fibronectin (human) [1] = biological target: fibronectin (human) (UniProt P02751); assay: turbidity (OD 590 nm) 3 hours after mixing with fibronectin in PBS, final concentration 0.5 mg/ml
fibronectin (human) [2] = biological target: fibronectin (human) (UniProt P02751); assay: turbidity of mixed protein solutions (optical density at 590 nm)

binding (fibronectin (human) [1]): binds
binding (fibronectin (human) [2]): binds
Binder: ANIKLSVQMKLFKRHIKWKIIVKLNDGRELSLD [anginex]
